Results as given in paper PMC4255431.
These are yes or no findings as the source states them, for the method shown. Binding seen in cells or lysates may run through a third protein. Some entries that bind do so weakly or less than the wild type.

Chains of the proteins cited; added tags and fusions are not shown. Lines headed by an entry give the natural chain unless they say otherwise; changes in a name come on top. A line that says so, or that is headed by a name, gives the form on record, which may keep a tag or linker. Residues count along the entry.
UniProt Q13418: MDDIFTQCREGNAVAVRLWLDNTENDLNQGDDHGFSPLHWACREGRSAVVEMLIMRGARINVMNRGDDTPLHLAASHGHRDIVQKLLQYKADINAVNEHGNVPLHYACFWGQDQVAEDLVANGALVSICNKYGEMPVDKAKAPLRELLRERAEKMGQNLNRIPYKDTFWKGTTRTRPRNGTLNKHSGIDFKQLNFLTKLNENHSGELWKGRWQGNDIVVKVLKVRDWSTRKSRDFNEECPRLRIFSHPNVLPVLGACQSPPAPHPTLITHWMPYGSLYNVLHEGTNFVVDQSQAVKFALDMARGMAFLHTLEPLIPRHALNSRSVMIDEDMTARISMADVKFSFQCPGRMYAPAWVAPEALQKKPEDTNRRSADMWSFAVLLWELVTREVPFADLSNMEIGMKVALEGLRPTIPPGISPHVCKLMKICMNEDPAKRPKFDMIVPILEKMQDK
Flag-tagged N-terminal truncated ILK (ILK 171-452): residues 171-452 of Q13418
UniProt P46940: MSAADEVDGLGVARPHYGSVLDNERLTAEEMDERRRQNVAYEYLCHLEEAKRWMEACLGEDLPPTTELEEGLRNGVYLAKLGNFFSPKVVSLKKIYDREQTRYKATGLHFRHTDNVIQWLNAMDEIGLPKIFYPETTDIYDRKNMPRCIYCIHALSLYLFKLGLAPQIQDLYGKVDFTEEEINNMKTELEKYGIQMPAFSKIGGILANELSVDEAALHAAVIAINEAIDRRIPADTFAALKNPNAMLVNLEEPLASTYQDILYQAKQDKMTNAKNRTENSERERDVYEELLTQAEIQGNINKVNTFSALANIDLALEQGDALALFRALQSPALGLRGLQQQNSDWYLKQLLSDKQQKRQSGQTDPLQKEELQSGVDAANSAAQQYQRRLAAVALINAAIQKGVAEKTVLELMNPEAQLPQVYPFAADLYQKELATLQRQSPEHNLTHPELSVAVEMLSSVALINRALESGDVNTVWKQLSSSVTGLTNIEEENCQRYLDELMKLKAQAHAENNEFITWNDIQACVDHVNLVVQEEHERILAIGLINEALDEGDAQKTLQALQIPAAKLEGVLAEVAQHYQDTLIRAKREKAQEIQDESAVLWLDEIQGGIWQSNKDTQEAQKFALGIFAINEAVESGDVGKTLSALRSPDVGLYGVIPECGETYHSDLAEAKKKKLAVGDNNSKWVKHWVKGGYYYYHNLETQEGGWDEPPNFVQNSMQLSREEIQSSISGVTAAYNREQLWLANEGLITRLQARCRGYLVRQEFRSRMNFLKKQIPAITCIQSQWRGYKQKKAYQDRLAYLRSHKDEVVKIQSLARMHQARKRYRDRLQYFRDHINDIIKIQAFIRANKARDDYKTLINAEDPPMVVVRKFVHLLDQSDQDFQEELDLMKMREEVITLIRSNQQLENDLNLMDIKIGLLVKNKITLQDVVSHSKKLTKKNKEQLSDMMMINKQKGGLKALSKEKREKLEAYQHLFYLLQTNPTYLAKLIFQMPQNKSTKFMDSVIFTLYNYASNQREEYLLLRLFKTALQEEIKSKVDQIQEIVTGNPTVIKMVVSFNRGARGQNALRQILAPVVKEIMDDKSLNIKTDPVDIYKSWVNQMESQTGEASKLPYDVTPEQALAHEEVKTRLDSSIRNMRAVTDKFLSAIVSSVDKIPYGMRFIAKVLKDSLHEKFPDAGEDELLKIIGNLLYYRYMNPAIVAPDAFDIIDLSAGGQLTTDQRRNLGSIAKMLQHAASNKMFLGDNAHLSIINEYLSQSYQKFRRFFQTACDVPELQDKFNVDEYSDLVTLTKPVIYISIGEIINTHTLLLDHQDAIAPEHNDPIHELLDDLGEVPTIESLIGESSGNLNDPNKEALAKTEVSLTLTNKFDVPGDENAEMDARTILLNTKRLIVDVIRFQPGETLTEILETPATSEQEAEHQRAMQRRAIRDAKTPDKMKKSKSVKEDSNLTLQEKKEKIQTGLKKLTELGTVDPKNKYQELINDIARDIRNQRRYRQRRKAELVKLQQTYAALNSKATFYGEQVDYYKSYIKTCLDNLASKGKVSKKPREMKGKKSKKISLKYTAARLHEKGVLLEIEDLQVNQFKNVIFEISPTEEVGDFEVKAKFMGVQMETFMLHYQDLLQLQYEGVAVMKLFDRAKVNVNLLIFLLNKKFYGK

Key:
[1] = target: Flag-tagged N-terminal truncated ILK (ILK 171-452) (UniProt Q13418); assay: co-IP; lysates of MKN45 cells transfected with pcDNA3.1-Flag-ILK constructs; coimmunoprecipitation of Flag, western blots of the indicated proteins
[2] = target: Flag-tagged full-length ILK (ILK 1-452) (UniProt Q13418); assay: as above
[3] = target: Integrin-linked kinase (ILK) (human (endogenous in AGS)) (UniProt Q13418); assay: co-IP; lysates of untreated AGS cells; IP with control IgG or antibodies against ILK, IQGAP1 and Ras; immunoblots of ILK, IQGAP1 and Ras; 100 ug lysate, 2 ug antibody, protein G, overnight at 4°C

binding [1]: binds
binding [2]: binds
binding [3]: binds
Substance: IQ motif-containing GTPase-activating protein 1 (IQGAP1) (from UniProt P46940 1-1657)
